# Test results as given in PubChem BioAssay AID1688 (National Center for Advancing Translational Sciences (NCATS), 2009).
# Screen size: about 220,000 compounds; about 2,400 (1.1%) were called active. Inconclusive results, whose numbers are uncertain, are shown with a selection of clear calls. The call rests on the fitted dose curve; in most records, active means well fitted inhibition curve with a large enough effect; inconclusive means small, poorly fitted or top-dose-only effect, or effect the other way; inactive means no such curve, though single readings can be large or run the other way. A potency beside an inconclusive call is a rough fit, not a confirmed value.
# Assay: qHTS Multiplex Assay to Identify Dual Action Probes in a Cell Model of Huntington: Aggregate Formation (GFP); further: nearly all actives have a fitted effect of over 60% in size
# Details: PC12 HttQ103-GFP aggregates, Acumen cytometry, 40 h; activity change, negative = inhibition: at 46.1 µM (top of the series) unless noted
# Method in brief: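 Ecdysone-promoter PC12 model expressing HTT exon 1 Q103 fused to GFP, induced by tebufenozide at 100 nM final. Compounds titrated; aggregates sized 1–25 µm scored on a 488 nm laser cytometer.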
# On the % scale 0 is the no-effect control and ±100 the full control effect; potency means the concentration at half of the fitted maximal effect.
SMILES,Potency,"activity change, negative = inhibition"
Cc1nn(-c2ccccc2)c2c1C(=O)N(c1ccccc1)C(=O)C(C)(C)C2,inactive,
CN(C)S(=O)(=O)N(CC(=O)Nc1ccc2ccccc2c1)c1ccccc1,"inconclusive: 5.62 µM [activator, single point]",
COc1cc(C(=O)O/N=C2/C=C(C)C(=O)C=C2C)cc(OC)c1OC,"inconclusive: 7.94 µM [activator, partial curve]",
O=c1[nH]c2cc([N+](=O)[O-])c(NCCO)c([N+](=O)[O-])c2[nH]1,inactive,
CN(C(=O)c1ccccc1C(=O)OCC(=O)NCc1cccs1)C1CCCCC1,inactive,
COc1ccccc1Nc1nc(N)nc(CSc2nc(C)cc(C)n2)n1,"inconclusive: 12.6 µM [inhibitor, single point]",
COc1cccc(/C=N/Nc2nccnc2Cl)c1O,active: 1.26 µM,
CCn1c(SCc2ccccc2)nnc1-c1cccs1,"inconclusive: 12.6 µM [inhibitor, partial curve]",
Cn1cc(C=C2C(=O)OC3(CCCCC3)OC2=O)c2ccccc21,,inactive: -8.03% [at 9.22 µM]
Cc1ccc(NC(=O)CN(c2ccc(Cl)cc2)S(=O)(=O)c2cc([N+](=O)[O-])ccc2Cl)c(C)c1,"inconclusive: 1.12 µM [activator, full curve, poor fit]",
O=C(O)CCC(=O)N1CCc2cc(S(=O)(=O)Nc3ccc4c(c3)OCCO4)ccc21,inactive,
O=C1C(Nc2cccc(O)c2)=C(N2CCCCC2)C(=O)c2ccccc21,"inconclusive: 35.5 µM [inhibitor, single point]",
Cc1c(Cc2ccccc2)c(=O)oc2c(O)c(O)ccc12,"inconclusive: 35.5 µM [activator, single point]",
COc1ccc2c(c1)-c1nc(N)sc1CC2,,inactive: -14.5% [at 9.22 µM]
Cc1cccc(C)c1-n1c(C)cc(/C=N\Nc2ccc([N+](=O)[O-])cn2)c1C,"inconclusive: 8.91 µM [inhibitor, partial curve]",
CCC1CCCCN1S(=O)(=O)c1ccc(C(=O)Nc2nnc(-c3ccccc3Cl)o2)cc1 (stereo not drawn),active: 7.94 µM,
O=C(Cn1ncc(Cl)c(Cl)c1=O)N1CCN(Cc2ccccc2)CC1,"inconclusive: 25.1 µM [inhibitor, single point]",
CCOC(=O)c1sc(NC(=O)/C=C/c2cnn(CC)c2C)c(C(=O)OCC)c1C,"inconclusive: 14.1 µM [inhibitor, single point]",
COc1ccc(CCNS(=O)(=O)c2cccc(C)c2)cc1OC,inactive,
O=C(c1cc(C(=O)c2ccco2)cc(C(=O)c2ccco2)c1)c1ccco1,inactive,
O=[N+]([O-])c1c(NCCCO)cc(Sc2nc3ccccc3s2)c2nonc12,active: 6.31 µM,
CC(C(=O)c1c[nH]c(C(N)=O)c1)c1ncc(C(F)(F)F)cc1Cl (stereo not drawn),"inconclusive: 35.5 µM [activator, single point]",
Cc1csc(NC(=O)C2CCCN(S(=O)(=O)c3ccc(Br)s3)C2)n1 (stereo not drawn),"inconclusive: 12.6 µM [inhibitor, single point]",
O=[N+]([O-])c1ccc(/C=N/Nc2ncc(-c3ccccc3)cn2)cc1,,inactive: 11.3% [at 9.22 µM]
COc1ccc(CN(CCC(c2ccccc2)c2ccco2)C(=O)c2ccco2)cc1 (stereo not drawn),inactive,

SMILES,Potency,"activity change, negative = inhibition"
CCOC(=O)C1(Cc2cccc(F)c2)CCN(C(=O)Cn2cnnn2)CC1,,inactive: 1.18% [at 9.22 µM]
NNc1nnc2c3cc(F)ccc3n(Cc3ccccc3)c2n1,,inactive: -8.88% [at 9.22 µM]
Cc1ccc(N(CC(=O)Nc2ccc(F)c(Cl)c2)S(=O)(=O)c2c(C)noc2C)cc1,"inconclusive: 28.2 µM [inhibitor, single point]",
Cc1cc(-n2c(C)cc(C(=O)CSc3nnnn3-c3ccc(Cl)cc3)c2C)no1,"inconclusive: 35.5 µM [inhibitor, single point]",
O=[N+]([O-])c1cccc(N=Cc2sc3ccccc3c2O)c1,inactive,
COc1ccc(C(=O)CSC#N)cc1OC,inactive,
C=CCOc1c(CNc2nccs2)cccc1OCC,inactive,
CCC(=O)Nc1ccc(C(=O)CSc2nnc(CNc3ccc(Cl)cc3)o2)cc1OC,"inconclusive: 22.4 µM [inhibitor, partial curve]",
CCOC(=O)c1ccc(NC(=O)N2CCN(C(=O)C3CCCO3)CC2)cc1 (stereo not drawn),,inactive: 5% [at 9.22 µM]
Cc1ccc(C(=O)N/C(=C\C=C\c2ccccc2)C(=O)NCc2ccco2)cc1,"inconclusive: 14.1 µM [inhibitor, single point]",
COc1ccc(-c2nc(-c3ccccc3)no2)c(OC)c1,"inconclusive: 0.0316 µM [inhibitor, full curve, poor fit]",
COc1cc2c(C)nc3c(c(C)nn3-c3ccccc3)c2cc1OC,,inactive: -1.84% [at 9.22 µM]
N#Cc1nc(-c2ccco2)oc1NCc1ccc(F)cc1,inactive,
Cc1ccc(C(=O)COC(=O)c2ccc3c(c2)C(=O)N(c2cccc4ncccc24)C3=O)cc1,active: 20 µM,
C/C(=N\Nc1cccc2cccnc12)c1ccc[nH]1,inactive,
CCCN(CCC)S(=O)(=O)c1ccc(C(=O)N2CCCc3ccccc32)cc1,"inconclusive: 28.2 µM [inhibitor, single point]",
N#Cc1c(Nc2cccc(F)c2)sc2c(O)cc(=O)[nH]c12,inactive,
Cc1ccc(-c2nc3ccccc3o2)cc1NC(=O)c1ccc2c(c1)OCO2,"inconclusive: 1 µM [inhibitor, full curve, poor fit]",
Cc1nc(SCC(=O)NC(=O)NCc2ccco2)nc(C)c1C,inactive,
Cc1ccc(Cn2ncc3c(N4CCN(c5ccccc5C)CC4)ncnc32)cc1,"inconclusive: 35.5 µM [inhibitor, single point]",
COc1cc(OC)cc(C(=O)N[C@H](C(=O)OCC(=O)Nc2ccc(C(C)C)cc2)C(C)C)c1,"inconclusive: 5.62 µM [inhibitor, single point]",
Clc1ccccc1/C=N/NC1=Nc2cccc3cccc1c23,"inconclusive: 35.5 µM [inhibitor, single point]",
CCOC(=O)c1sc(NC(=O)c2cc(-c3ccc(C)cc3)nc3ccccc23)c(C#N)c1C,active: 10 µM,
CCOC(=O)C1=C(N)OC2=C(C(=O)CC(C)(C)C2)C1c1ccc(CC)s1 (stereo not drawn),inactive,
C=CCN1C(c2ccc(Br)cc2)=CS/C1=C(/C#N)c1nnc(N2CCOCC2)n1-c1ccccc1,"inconclusive: 28.2 µM [inhibitor, single point]",

# 13 successive entries out of the list so far, quoted:
SMILES,Potency,"activity change, negative = inhibition"
CCOC(=O)C1(Cc2cccc(F)c2)CCN(C(=O)Cn2cnnn2)CC1,,inactive: 1.18% [at 9.22 µM]
NNc1nnc2c3cc(F)ccc3n(Cc3ccccc3)c2n1,,inactive: -8.88% [at 9.22 µM]
Cc1ccc(N(CC(=O)Nc2ccc(F)c(Cl)c2)S(=O)(=O)c2c(C)noc2C)cc1,"inconclusive: 28.2 µM [inhibitor, single point]",
Cc1cc(-n2c(C)cc(C(=O)CSc3nnnn3-c3ccc(Cl)cc3)c2C)no1,"inconclusive: 35.5 µM [inhibitor, single point]",
O=[N+]([O-])c1cccc(N=Cc2sc3ccccc3c2O)c1,inactive,
COc1ccc(C(=O)CSC#N)cc1OC,inactive,
C=CCOc1c(CNc2nccs2)cccc1OCC,inactive,
CCC(=O)Nc1ccc(C(=O)CSc2nnc(CNc3ccc(Cl)cc3)o2)cc1OC,"inconclusive: 22.4 µM [inhibitor, partial curve]",
CCOC(=O)c1ccc(NC(=O)N2CCN(C(=O)C3CCCO3)CC2)cc1 (stereo not drawn),,inactive: 5% [at 9.22 µM]
Cc1ccc(C(=O)N/C(=C\C=C\c2ccccc2)C(=O)NCc2ccco2)cc1,"inconclusive: 14.1 µM [inhibitor, single point]",
COc1ccc(-c2nc(-c3ccccc3)no2)c(OC)c1,"inconclusive: 0.0316 µM [inhibitor, full curve, poor fit]",
COc1cc2c(C)nc3c(c(C)nn3-c3ccccc3)c2cc1OC,,inactive: -1.84% [at 9.22 µM]
N#Cc1nc(-c2ccco2)oc1NCc1ccc(F)cc1,inactive,

# (further entries)

SMILES,Potency,"activity change, negative = inhibition"
O=C(CCN1CCOCC1)Nc1ccc2c(c1)CCC2,"inconclusive: 0.631 µM [activator, single point]",
Nc1cc2c(cc1C(=O)c1ccc(Cl)cc1)OCCO2,inactive,
O=c1oc2ccccc2c2c1nnn2CCO,,inactive: 0.278% [at 9.22 µM]
CCOC(=O)C(NC(=O)CC)(Nc1ccccc1)C(F)(F)F (stereo not drawn),inactive,
COc1cc2ncnc(NCc3cccc(Cl)c3)c2cc1OC,active: 14.1 µM,
CCC(CC)NC(=O)CO/N=C/c1ccccc1OC(F)F,inactive,
Cc1ccc(NC(=S)NNC(=S)Nc2ccc(C)cc2C)cc1,,inactive: -13.7% [at 9.22 µM]
CC(C)NC(=O)c1cc(C(=O)c2cc(Cl)ccc2O)coc1=N,active: 7.94 µM,
Cc1ccc(-n2c(N)c(C(=O)N3CCOCC3)sc2=S)cc1,"inconclusive: 2.82 µM [inhibitor, partial curve]",
Clc1ccc(C2[C@H]3CN(Cc4ccc(-c5ccccc5)cc4)[C@H](c4ccccc4)C34CC2(c2cccnc2)C4)cn1 (stereo partly drawn),"inconclusive: 2 µM [activator, partial curve]",
CCOC(=O)C1=C(Cc2ccc(C)cc2)C(=O)c2ccccc2C1=O,"inconclusive: 0.0891 µM [activator, partial curve, poor fit]",
S=c1[nH]nc(-c2ccc3ccccc3n2)n1-c1cc(Cl)cc(Cl)c1,"inconclusive: 10 µM [activator, partial curve, poor fit]",
COc1ccc(-c2cc(C(F)(F)F)nc(S(=O)(=O)CCCC(=O)Nc3cc(C)on3)n2)cc1OC,"inconclusive: 35.5 µM [inhibitor, single point]",
c1ccc2c(c1)OCC(CNc1ncnc3sccc13)O2 (stereo not drawn),"inconclusive: 14.1 µM [inhibitor, partial curve]",
Cc1cc(C(C)(C)C)oc1C(=O)N(CC(=O)NC1CCCC1)Cc1ccccc1Cl,"inconclusive: 35.5 µM [inhibitor, single point]",
O=[N+]([O-])c1c(NCCCO)cc(Sc2ccc(Cl)cc2)c2nonc12,"inconclusive: 35.5 µM [inhibitor, single point]",
Oc1sc(C=Nc2ccc(F)cc2)c2ccccc12,inactive,
CCCOc1ccc(NC(=O)CC2C(=O)N(CC)C(=S)N2Cc2cccs2)cc1 (stereo not drawn),"inconclusive: 11.2 µM [inhibitor, single point]",
O=C(c1cccc(S(=O)(=O)N2CCCC2)c1)c1cccc(S(=O)(=O)N2CCCC2)c1,active: 11.2 µM,
C=CCOC(=O)C1=C(C)NC(SC)=C(C#N)C1c1ccc(OCC)cc1 (stereo not drawn),inactive,
CSc1ccccc1C(=O)N1CCCCC1,"inconclusive: 0.562 µM [activator, full curve, poor fit]",
CCC(C)[C@@H](C(=O)Nc1ccc2c(c1)OCO2)N1Cc2ccccc2C1=O (stereo partly drawn),"inconclusive: 35.5 µM [inhibitor, partial curve]",
CCCNC(=O)c1nnsc1S(=O)(=O)c1ccc(Cl)cc1,"inconclusive: 7.94 µM [inhibitor, partial curve]",
